# Measured values from PubChem BioAssay (NCATS).
# Sequences of proteins named here, by UniProt entry; tags and fusion partners are left off. A change or cut given only in a name is not applied to a line headed by its entry.
# UniProt P21964: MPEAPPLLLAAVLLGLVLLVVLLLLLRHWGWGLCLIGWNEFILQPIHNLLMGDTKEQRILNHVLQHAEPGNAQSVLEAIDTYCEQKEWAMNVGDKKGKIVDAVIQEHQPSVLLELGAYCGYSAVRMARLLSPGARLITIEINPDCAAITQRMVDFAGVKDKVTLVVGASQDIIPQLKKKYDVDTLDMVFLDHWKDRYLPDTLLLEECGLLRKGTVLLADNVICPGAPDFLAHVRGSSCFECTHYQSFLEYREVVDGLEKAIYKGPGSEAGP
# UniProt P50135: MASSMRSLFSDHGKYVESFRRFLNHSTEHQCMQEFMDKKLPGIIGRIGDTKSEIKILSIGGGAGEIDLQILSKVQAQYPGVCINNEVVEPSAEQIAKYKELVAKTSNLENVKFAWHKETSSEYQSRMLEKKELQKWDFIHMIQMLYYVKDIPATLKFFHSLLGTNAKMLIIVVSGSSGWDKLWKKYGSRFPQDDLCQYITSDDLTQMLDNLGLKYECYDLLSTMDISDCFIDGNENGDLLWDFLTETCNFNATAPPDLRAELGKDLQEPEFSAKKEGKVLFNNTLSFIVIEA
# UniProt P40261: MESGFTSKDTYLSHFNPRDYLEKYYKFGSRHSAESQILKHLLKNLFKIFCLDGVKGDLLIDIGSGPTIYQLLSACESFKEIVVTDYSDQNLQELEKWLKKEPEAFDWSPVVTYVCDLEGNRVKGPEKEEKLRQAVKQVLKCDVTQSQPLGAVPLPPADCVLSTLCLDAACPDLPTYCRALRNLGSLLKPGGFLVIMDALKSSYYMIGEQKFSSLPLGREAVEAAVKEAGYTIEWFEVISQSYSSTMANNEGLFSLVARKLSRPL
# UniProt P11086: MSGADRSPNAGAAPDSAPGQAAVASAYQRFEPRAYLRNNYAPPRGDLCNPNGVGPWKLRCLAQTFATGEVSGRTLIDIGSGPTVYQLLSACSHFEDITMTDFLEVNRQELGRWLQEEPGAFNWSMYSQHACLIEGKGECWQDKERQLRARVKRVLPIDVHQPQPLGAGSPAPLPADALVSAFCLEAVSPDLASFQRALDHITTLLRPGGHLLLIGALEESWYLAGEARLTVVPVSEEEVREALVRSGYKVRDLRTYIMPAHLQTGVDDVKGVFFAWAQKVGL
# “And” between values parts separate entries of the source, which are not always exact repeats. Equal values may be shown once. This is one part of the list. Further columns of the screen follow, without active or inactive calls. Compounds called inactive in the main read-out are mostly missing here. For some assays here: Potencies come from curve fits of mixed quality, noted in brackets.
# Assays:
# [1] = qHTS assay for small molecule antagonists of peroxisome proliferator-activated receptor gamma signaling (AID 588537); conditions: HEK293 PPARg-UAS-bla, beta-lactamase ratio, antagonist mode; measured here: W460 blue channel
# How it was run: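 PPARγ-UAS-bla HEK293 cells (3000/well) in 1% charcoal/dextran-stripped FBS are treated with compound, then stimulated with 50 nM rosiglitazone for 16 h at 37 °C. Read-out is CCF4 β-lactamase fluorescence after 2 h at RT. IC50 comes from Hill fits normalised to rosiglitazone and DMSO.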
# [2] = A High-Content qHTS Against Drug Library for the Identification of Small Molecules that Inhibit DYT1 Early Onset Primary Dystonia-Associated Cell Pathology (AID 1645839); conditions: HEK293 Flp-In EGFP-delE TorsinA, punctate imaging, 48 h; measured here: cell count cytotoxicity
# How it was run: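 Flp-In T-REx 293 cells with tetracycline-inducible EGFP-delE hTOR1A (WT EGFP-hTOR1A as reference), 800 cells/well; compound added with tetracycline, 48 h at 37 C. Fixed, permeabilized cells imaged; %pathology (punctate TorsinA) primary, cell count counterscreen.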
# [3] = qHTS assay for small molecule antagonists of vitamin D receptor signaling (AID 588541); conditions: HEK293T VDR-UAS-bla, beta-lactamase ratio, antagonist mode; measured here: W460 blue channel (cell viability)
# [4] = qHTS assay for small molecule antagonists of peroxisome proliferator-activated receptor delta signaling (AID 588535); conditions: HEK293T PPARd-UAS-bla, beta-lactamase FRET ratio, 18 h; 460 nm channel;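 also: cells co-treated with a PPAR-delta agonist as stimulator during compound exposure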
# How it was run: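 Antagonist-mode beta-lactamase reporter (GeneBLAzer PPAR-delta-UAS-bla) in HEK293T cells, 2% charcoal/dextran FBS, 4000 cells/well. Compound titrations, 18 h at 37 C; CCF4 ratio read, IC50 and efficacy from Hill fits.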
# [5] = qHTS assay for small molecule agonists of retinoid X receptor alpha signaling (AID 588544); conditions: HEK293T RXRa-UAS-bla, beta-lactamase reporter, 18 h; 530 nm emission
# [6] = target: Catechol O-methyltransferase (Homo sapiens) (UniProt P21964); test: Confirmatory Screen for Target Class Profiling of Small Molecule Inhibitors of Methyltransferases (AID 1745852); conditions: MTase-Glo luminescence, SAH detection, recombinant enzyme; measured here: COMT inhibition potency
# [7] = target: Histamine N-methyltransferase (Homo sapiens) (UniProt P50135); test: as above; conditions: MTase-Glo luminescence, SAH detection, recombinant enzyme; measured here: HNMT inhibition potency
# [8] = target: Nicotinamide N-methyltransferase (Homo sapiens) (UniProt P40261); test: as above; conditions: MTase-Glo luminescence, SAH detection, recombinant enzyme; measured here: NNMT inhibition potency
# [9] = target: Phenylethanolamine N-methyltransferase (Homo sapiens) (UniProt P11086); test: as above; conditions: MTase-Glo luminescence, SAH detection, recombinant enzyme; measured here: PNMT inhibition potency
# [10] = qHTS assay for small molecule antagonists of androgen receptor signaling (AID 588516); conditions: AR-UAS-bla HEK293, beta-lactamase ratio, antagonist mode, 16 h
# How it was run: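 Antagonist mode: inhibition of R1881-stimulated (10 nM final) bla reporter in GeneBLAzer AR HEK 293 cells, 16 h at 37C, compounds titrated. IC50 and efficacy from Hill-equation fits of 405/460–530 nm FRET ratios.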
# [11] = qHTS assay for small molecule antagonists of retinoid X receptor alpha signaling (AID 588546); conditions: HEK293T RXRa-UAS-bla, beta-lactamase ratio, antagonist mode; measured here: W530 green channel, cytotoxicity proxy;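 also: cells stimulated with 9-cis-retinoic acid as agonist; % is scaled to controls: 0 for no effect and ±100 for the full control effect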
# How it was run: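 Beta-lactamase reporter inhibition, read as CCF4 fluorescence ratio (ex 405, em 460/530 nm) after 2 h at RT. HEK293T UAS-bla cells, 2500/well, were stimulated with 9-cis-RA at 500 or 100 nM final alongside test compound for 18 h at 37 C.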
# [12] = qHTS Assay for Modulators of Human Peripheral Myelin Protein 22 (PMP22) Expression/Activity (AID 1967); conditions: Cell-based PMP22 reporter, dual-color luciferase ratio; measured here: green reporter channel AC50; mouse Pmp22 promoter in mouse Schwann cells
# How it was run: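 Engineered MSC80 cells, Pmp22-promoter green and EF-alpha red luciferase reporters; 24h compound treatment at 37 °C. Concentration-response fits on green, red and ratio signals, each overlap-corrected, with %Activity normalized to untreated wells.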
smiles,measurement,setting,value
O=S(=O)(O)C(F)(F)C(F)(F)C(F)(F)C(F)(F)C(F)(F)C(F)(F)C(F)(F)C(F)(F)F,AC50,[1],"50.1 µM [falling, partial curve, poor fit]"
same,AC50,[2],"35.5 µM [falling, partial curve]"
CC1(C)C(C=C(Cl)Cl)C1C(=O)OC(C#N)c1cccc(Oc2ccccc2)c1 (centres undefined),AC50,[3],"14.1 µM [falling, partial curve, poor fit]"
same,AC50,[2],"20 µM [rising, single point]"
Nc1ccc(Sc2ccc(N)cc2)cc1,max response,[4],5.29% and 70.8%
same,AC50,[2],"12.6 µM [falling, full curve]"
CCCCCCCCCC(CC)c1ccc(S(=O)(=O)O)cc1 (centres undefined),AC50,[1],"0.001 µM [falling, full curve, poor fit]"
same,AC50,[2],"17.8 µM [falling, partial curve, poor fit]"
CCC(OC(C)=O)C(CC(C)NC)(c1ccccc1)c1ccccc1 (centres undefined),AC50,[2],"11.2 µM [falling, partial curve, poor fit]"
CC(C)=C[C@@H]1[C@@H](C(=O)OCc2coc(Cc3ccccc3)c2)C1(C)C,AC50,[2],"14.1 µM [rising, single point]"
CNCC(=O)c1ccc(O)c(O)c1,AC50,[2],"12.6 µM [falling, partial curve, poor fit]"
CN(C)[C@@H]1C(=O)C(C(N)=O)=C(O)[C@@]2(O)C(=O)C3=C(O)c4c(O)cccc4[C@@](C)(O)[C@H]3C[C@@H]12,AC50,[2],"7.94 µM [rising, partial curve, poor fit]"
CN1[C@@H]2CC[C@H]1CC(OC(=O)c1cc(Cl)cc(Cl)c1)C2 (some centres undefined),AC50,[2],"35.5 µM [falling, single point]"
Nc1ccc(Cl)cc1,max response,[4],8.8%
same,max response,[5],-5.47%
same,AC50,[2],"6.31 µM [falling, full curve]"
C[C@@H]1CN(C2CCC(C#N)(c3ccc(F)cc3)CC2)CC[C@]1(C(=O)O)c1ccccc1 (some centres undefined),AC50,[2],"0.501 µM [falling, full curve, poor fit]"
CN1CC[C@]23c4c5ccc(O)c4O[C@H]2[C@@H](O)CC[C@H]3[C@H]1C5,AC50,[2],"7.94 µM [rising, single point]"
CCN[C@@H](C)Cc1ccccc1,AC50,[2],"63.1 µM [falling, single point]"
CCC1CN2CCc3cc(OC)c(OC)cc3C2CC1CC1=NCCc2cc(O)c(OC)cc21 (centres undefined),IC50,[6],"9.37 µM [falling, partial curve]"
NC1CCc2cc(O)c(O)cc2C1 (centres undefined),IC50,[6],"5.44 µM [rising, partial curve]"
CCCN(CCC)[C@@H]1CCc2ccc(O)cc2C1,IC50,[7],"24.3 µM [falling, partial curve, poor fit]"
C=C[C@H]1CN2CC[C@H]1C[C@@H]2CNC(=O)Nc1ccc(Br)cc1,IC50,[7],"31.2 µM [falling, partial curve]"
N#Cc1cn([C@@H]2O[C@H](CO)[C@H](O)[C@@H]2O)c2ncnc(N)c12,IC50,[6],"34.1 µM [falling, partial curve]"
same,IC50,[7],"34.1 µM [falling, single point]"
same,IC50,[8],"34.1 µM [falling, single point]"
same,IC50,[9],"42.9 µM [falling, single point]"
C[C@H]1CCCC(=O)CCC/C=C/c2cc(O)cc(O)c2C(=O)O1,AC50,[10]; measured here: W460 blue channel fit,"25.1 µM [falling, full curve, poor fit] and 25.1 µM [falling, partial curve, poor fit]"
same,AC50,"[10]; measured here: W530 green channel, cytotoxicity/artifact","5.01 µM [rising, full curve, poor fit]"
same,max response,[4],97.9% and 45.4% and 55.1%
same,AC50,[1],"15.8 µM [falling, full curve] and 44.7 µM [rising, single point]"
same,max response,[5],22.8%
same,max response,[11],21.8% and 28%
same,IC50,[6],"12.1 µM [falling, partial curve]"
same,IC50,[7],"10.8 µM [falling, partial curve]"
same,IC50,[8],"19.2 µM [falling, partial curve]"
same,IC50,[9],"13.6 µM [falling, partial curve]"
Oc1cc(Cl)ccc1Oc1ccc(Cl)cc1Cl,max response,[5],-6.5%
same,AC50,[2],"28.2 µM [falling, single point]"
CN(N=O)c1ccc(O)c(O)c1,AC50,[12],"95.3 µM [falling, single point]"
same,IC50,[6],"21.7 µM [falling, partial curve]"
C[C@H]1O[C@@H](O[C@H]2CC[C@]3(CO)C4CC[C@]5(C)[C@@H](C6=CC(=O)OC6)CC[C@]5(O)[C@@H]4CC[C@H]3C2)[C@H](O)[C@H](O)[C@@H]1O[C@@H]1O[C@H](CO)[C@@H](O)[C@H](O)[C@H]1O (some centres undefined),IC50,[6],"0.359 µM [falling, full curve]"
C[C@@H]1[C@@H]2Cc3ccc(O)cc3[C@@]1(C)CCN2CC1CC1,IC50,[7],"21.7 µM [falling, partial curve, poor fit]"
COc1cc(C(=O)O[C@H]2[C@@H]3C=CO[C@@H](O[C@@H]4O[C@H](CO)[C@@H](O)[C@H](O)[C@H]4O)[C@@H]3[C@@]3(CO)O[C@@H]23)ccc1O,IC50,[6],"2.96 µM [falling, full curve]"

# Part of the list above, as tab-separated lines.
smiles	measurement	setting	value
CCCCCCCCCC(CC)c1ccc(S(=O)(=O)O)cc1 (centres undefined)	AC50	[1]	0.001 µM [falling, full curve, poor fit]
CN1CC[C@]23c4c5ccc(O)c4O[C@H]2[C@@H](O)CC[C@H]3[C@H]1C5	AC50	[2]	7.94 µM [rising, single point]
